PubChem BioAssay AID504774 – Drosophila RNAi Screening Center | 2011
The deposit covers about 23,000 reagents; this is a random part of those that have a named target and a result. 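Values are quantile-normalised luminescence on an arbitrary scale; higher means more cells surviving MMS.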 Reagents against one gene are numbered here. A plus sign joins genes that one reagent is predicted to hit. Further read-outs or replicates are left out here.

Test: 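Genes required for cells to withstand methyl methanesulphonate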 (primary screen)
Cell system: Drosophila Kc167 cells
Reagents: long dsRNA against Drosophila genes, about 0.25 µg dsRNA per well
Time to read-out: about 6 days: 3 days knock-down, then 3 days with or without MMS
Conditions: methyl methanesulphonate 0.004% (w/v) for 3 days after knock-down
Measurement: 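ATP-dependent luminescence as a measure of live cells in MMS-exposed wells, quantile normalised within each plate, with replicate values also given as a mean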
Scale: mean viability with MMS: higher = more surviving cells after MMS

predicted target	reagent	mean viability with MMS
CG2991	1	3.55e6
rdgA	1	3.30e6
rdgA	2	3.42e6
rdgA	3	3.06e6
PolE2	1	3.64e6
CG1307	1	3.67e6
tacc	1	3.40e6
tacc	2	3.36e6
Ent1	1	3.59e6
eIF4A	1	2.88e6
CG17684	1	3.60e6
CG17684	2	3.68e6
swa	1	3.46e6
CG30466	1	3.55e6
CG3618	1	3.49e6
ppk29	1	3.65e6
PIP5K59B	1	3.50e6
PIP5K59B	2	3.63e6
CG14891	1	3.62e6
CG34249 (retired record)	1	3.42e6
CG7377	1	3.47e6
CG7166	1	3.68e6
ninaB	1	3.67e6
CG18609	1	3.64e6
Tctp	1	3.55e6
ppk5	1	3.53e6
obst-G	1	3.45e6
CG7536	1	3.73e6
Alk	1	3.69e6
Alk	2	3.14e6
ana2	1	3.55e6
Pfdn6	1	3.45e6
CG2906	1	3.63e6
Mlf	1	3.26e6
CG13127	1	3.46e6
CG13840	1	3.34e6
CG13840	2	3.56e6
Eig71Ea	1	3.65e6
mab-21	1	3.87e6
CG17047	1	3.87e6
dally	1	3.58e6
dally	2	3.53e6
CG3071	1	3.60e6
Or59a	1	3.60e6
CG15741	1	3.38e6
CtsL2	1	3.65e6
CG17601	1	3.50e6
CG40006	1	3.50e6
CG40006	2	3.55e6
CG40006	3	3.45e6
CG40006	4	3.54e6
Flo2	1	3.55e6
Flo2	2	3.57e6
Unc-115b + p24-2	1	3.57e6
narya	1	3.64e6
Gcn5	1	3.20e6
Lint-1	1	3.52e6
CG4461	1	3.54e6
ref(2)P	1	3.50e6
Yip1d1	1	3.59e6
CG3808	1	3.37e6
Tm2	1	3.45e6
Rab26	1	3.26e6
Rab26	2	3.39e6
Rab26	3	3.42e6
bru1	1	2.95e6
bru1	2	3.08e6
bru1	3	3.47e6
bru1	4	3.48e6
bru1	5	3.46e6
Ir94e	1	3.61e6
CG8960	1	3.44e6
CG17560	1	3.46e6
CG32554	1	3.49e6
CG12641 (retired record)	1	3.21e6
CG12641 (retired record)	2	3.56e6
Sln	1	3.50e6
TTLL3B	1	3.72e6
CG17572	1	3.57e6
CG14744	1	3.47e6
Tep2	1	3.38e6
Tep2	2	3.31e6
PGRP-LD + Cralbp + Pmi	1	3.47e6
CG14207	1	3.53e6
CG14207	2	3.56e6
CG15358	1	3.58e6
CG13872	1	3.47e6

A run of entries from the list above, for reference:
predicted target	reagent	mean viability with MMS
CG7166	1	3.68e6
ninaB	1	3.67e6
CG18609	1	3.64e6
Tctp	1	3.55e6
ppk5	1	3.53e6
obst-G	1	3.45e6
CG7536	1	3.73e6
Alk	1	3.69e6
Alk	2	3.14e6
ana2	1	3.55e6
Pfdn6	1	3.45e6
CG2906	1	3.63e6
Mlf	1	3.26e6
CG13127	1	3.46e6
CG13840	1	3.34e6
